Measured values from PMC12406384.
No constants are given. Whether binding was seen depends on the method and setting. Binding seen in cells or lysates may run through a third protein. Some results given as binding are weak or reduced against the parent protein; the word gives no strength.

The chains behind the UniProt entries cited, without tags or fusion partners.
UniProt P19091: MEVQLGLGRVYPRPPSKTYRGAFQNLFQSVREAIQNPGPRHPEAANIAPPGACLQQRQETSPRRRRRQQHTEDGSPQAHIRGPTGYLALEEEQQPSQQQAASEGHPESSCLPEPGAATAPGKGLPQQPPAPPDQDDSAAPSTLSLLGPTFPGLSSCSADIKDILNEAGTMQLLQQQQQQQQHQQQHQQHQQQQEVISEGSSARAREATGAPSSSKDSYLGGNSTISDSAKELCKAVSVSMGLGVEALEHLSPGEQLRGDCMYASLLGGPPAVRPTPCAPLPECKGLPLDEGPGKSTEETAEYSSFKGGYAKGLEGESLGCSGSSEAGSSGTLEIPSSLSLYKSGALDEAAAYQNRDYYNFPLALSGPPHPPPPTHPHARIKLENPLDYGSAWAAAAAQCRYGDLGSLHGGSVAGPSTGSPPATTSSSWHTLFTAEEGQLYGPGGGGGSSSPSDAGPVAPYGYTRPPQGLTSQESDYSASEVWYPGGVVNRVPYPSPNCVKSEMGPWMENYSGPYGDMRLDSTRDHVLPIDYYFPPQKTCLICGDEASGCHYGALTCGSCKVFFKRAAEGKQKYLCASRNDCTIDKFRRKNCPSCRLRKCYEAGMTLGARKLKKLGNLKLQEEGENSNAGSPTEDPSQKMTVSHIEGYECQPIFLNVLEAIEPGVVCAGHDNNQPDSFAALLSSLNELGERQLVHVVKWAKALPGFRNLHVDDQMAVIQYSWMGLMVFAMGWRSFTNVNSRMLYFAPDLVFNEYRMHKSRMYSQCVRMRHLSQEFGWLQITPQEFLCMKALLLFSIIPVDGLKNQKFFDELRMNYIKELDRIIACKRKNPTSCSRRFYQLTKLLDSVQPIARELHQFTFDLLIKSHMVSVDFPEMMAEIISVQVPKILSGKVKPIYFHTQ

Experiments:
[1] = biological target: T1, Forkhead box protein L2 (mouse (endogenous in MPGCs)) (UniProt O88470); test: co-IP; endogenous proteins in MPGC lysate (500 µg/500 µl) with magnetic beads and anti-AR, anti-FOXL2 or rabbit IgG overnight at 4 °C; beads washed with PBS; Western blotting; cells treated with vehicle (ethanol) or DHT
T1 sequence: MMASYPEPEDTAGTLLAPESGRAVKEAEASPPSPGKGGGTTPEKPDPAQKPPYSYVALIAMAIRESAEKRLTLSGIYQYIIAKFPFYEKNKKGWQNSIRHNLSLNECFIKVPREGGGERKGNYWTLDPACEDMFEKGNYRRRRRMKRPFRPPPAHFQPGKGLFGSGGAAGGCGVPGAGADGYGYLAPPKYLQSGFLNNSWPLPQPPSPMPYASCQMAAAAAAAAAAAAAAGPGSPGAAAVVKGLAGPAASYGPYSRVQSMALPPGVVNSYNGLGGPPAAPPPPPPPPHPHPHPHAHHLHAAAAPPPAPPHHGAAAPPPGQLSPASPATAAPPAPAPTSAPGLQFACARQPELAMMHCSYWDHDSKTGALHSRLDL

[2] = biological target: androgen receptor (mouse (endogenous in MPGCs)) (UniProt P19091); test: as above

| Molecule | binding [1] | binding [2] |
| --- | --- | --- |
| androgen receptor (from UniProt P19091 1-899) | binds |  |
| Forkhead box protein L2 (protein, UniProt O88470 1-375) MMASYPEPEDTAGTLLAPESGRAVKEAEASPPSPGKGGGTTPEKPDPAQKPPYSYVALIAMAIRESAEKRLTLSGIYQYIIAKFPFYEKNKKGWQNSIRHNLSLNECFIKVPREGGGERKGNYWTLDPACEDMFEKGNYRRRRRMKRPFRPPPAHFQPGKGLFGSGGAAGGCGVPGAGADGYGYLAPPKYLQSGFLNNSWPLPQPPSPMPYASCQMAAAAAAAAAAAAAAGPGSPGAAAVVKGLAGPAASYGPYSRVQSMALPPGVVNSYNGLGGPPAAPPPPPPPPHPHPHPHAHHLHAAAAPPPAPPHHGAAAPPPGQLSPASPATAAPPAPAPTSAPGLQFACARQPELAMMHCSYWDHDSKTGALHSRLDL |  | binds |
